The values that follow come from the supplement of paper PMC3334620.

Whole data set: some 33,000 sequences, median “E-score (-0.5 to 0.5)” near -0.0014, cut for the highest 2% near 0.25. Some of the results follow.

This experiment has as its target T1, Cad1 (UniProt P24813).
T1 sequence: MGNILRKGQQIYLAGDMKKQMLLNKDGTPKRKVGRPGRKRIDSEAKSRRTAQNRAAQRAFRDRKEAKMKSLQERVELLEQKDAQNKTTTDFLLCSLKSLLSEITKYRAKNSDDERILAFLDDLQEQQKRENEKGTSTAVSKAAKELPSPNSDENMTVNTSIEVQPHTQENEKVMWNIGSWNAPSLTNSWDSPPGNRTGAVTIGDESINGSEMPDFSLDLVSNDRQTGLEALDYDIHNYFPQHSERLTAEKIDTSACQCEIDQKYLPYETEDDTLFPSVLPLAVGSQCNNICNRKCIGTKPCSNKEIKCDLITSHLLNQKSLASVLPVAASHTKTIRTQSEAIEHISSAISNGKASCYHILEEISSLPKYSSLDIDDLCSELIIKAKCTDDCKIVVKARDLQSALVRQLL
As to the kind of experiment: PBM E-score (8-mer binding enrichment) (E-score (-0.5 to 0.5)); higher = stronger / more preferred TF binding. The settings on record: protein concentration: 100 nM; construct: GST-full length. Put shortly:
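PURExpress in vitro transcription/translation supplied GST-tagged yeast transcription factors, either full-length or DNA-binding domain. Applied at about 100-200 nM to universal all-10-mer Agilent arrays double-stranded by primer extension, the bound protein was detected with fluorescent anti-GST. E-scores, modified Wilcoxon-Mann-Whitney statistics, were given by the Universal PBM Analysis Suite to ungapped eight-base words pooled with their reverse complements after masliner normalisation.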
On to ATCGAAGC, for which the “PBM E-score” value is -0.142. In the case of CATGCGAG it was -0.0416; in that of GCTGAGCC, -0.119. In the case of AGAAAATG it was 0.166.

On to AGCTTCAG, for which the “PBM E-score” value was -0.0911. In the case of AAGAAAGG it was 0.0418.

For CAGGGACC, the “PBM E-score” value was -0.36.

As for CGTCGTTC, the “PBM E-score” value worked out at 0.221. In the case of ACCAACCA it was 0.0516. In the case of CGGTGTGA it was 0.203. As to GAATGCGC, the “PBM E-score” value is 0.199. ATGACTAA: the “PBM E-score” value came out at 0.377. In the case of CCTGGGGA it was -0.43; in that of CAAGAGCG, -0.0357; in that of ACCGATGC, -0.0627. In the case of GTAGACAC it was -0.0178; in that of AATGTGGA, 0.0542.

With CATTCAGG, the “PBM E-score” value was -0.0709. In the case of CATAGGGC it was -0.163; in that of GACGGGTA, -0.249; in that of ACAGGCAA, 0.0554.

For GTGAAGCA, the “PBM E-score” value is -0.0409.

Turning to GCCAAAGA, the “PBM E-score” value was -0.173. In the case of AGAGCGGC it was -0.0338; in that of ATATGATC, 0.0924.

As for ATTGCCAA, the “PBM E-score” value was 0.0207. In the case of GGCATGCC it was 0.00621; in that of CTCATGCA, 0.0438; in that of TTATTAAA, 0.307. Take CATGCTGC: the “PBM E-score” value is -0.00626. With CTGATAGA, the “PBM E-score” value came out at 0.105. In the case of ATTTTCTC it was 0.0775. In the case of AGTAGCCA it was -0.282; in that of AAAGACCT, -0.12; in that of AGATTCGA, -0.0634.

For GATTGATA, the “PBM E-score” value was 0.233. With CTCAAGTC, the “PBM E-score” value is -0.208.

Regarding AACGGGGC, the “PBM E-score” value was found to be 0.0501. In the case of CCCTTATA it was -0.0522. In the case of AAGGAAAG it was -0.149; in that of CGTAGTCC, -0.064; in that of AAGGTGCA, -0.116. In the case of CTTGTGAA it was -0.0875; in that of AACGTCAA, 0.0199. With AATATGGT, the “PBM E-score” value was determined as 0.171. In the case of ATAGGACC, the “PBM E-score” value was -0.125. In the case of AAACGCCA it was 0.114. In the case of ATCGGGCA it was -0.0837; in that of TCAAACCA, 0.188; in that of ACCAGCAG, -0.16. Take CACTCTAC: the “PBM E-score” value turned out to be 0.189. Regarding ACATTCAT, the “PBM E-score” value was found to be 0.0781. For AGCCAGGA, the “PBM E-score” value was -0.0204.

Regarding CGGTGGTC, the “PBM E-score” value came to 0.00946. In the case of GCGGAGCC it was -0.101; in that of GTATTAGA, 0.26; in that of GGCTCACC, -0.24.

In the case of TGCAACAA, the “PBM E-score” value stood at 0.137. In the case of CATGCTAG it was 0.0845; in that of ATACCACC, 0.0548; in that of CATATGTC, -0.0107. Turning to ATAAGATG, the “PBM E-score” value came out at 0.00928. Turning to ACTTGGGA, the “PBM E-score” value was -0.197. In the case of AATTCAAG it was 0.0949. As for GCTCAAAA, the “PBM E-score” value stood at 0.0411.

Turning to CTCTATCC, the “PBM E-score” value was -0.0689. Turning to CTTGCTCC, the “PBM E-score” value is -0.0856.

Take GTCGACTA: the “PBM E-score” value came out at 0.234.

On to GGTTCTAC, for which the “PBM E-score” value was -0.157.

Turning to ATCGATGA, the “PBM E-score” value amounted to 0.13. In the case of CCTCTCCC it was -0.264; in that of AGAGTTCG, 0.213. As to GTGACGTA, the “PBM E-score” value is 0.0413. For AGTTCCAG, the “PBM E-score” value is -0.0736. In the case of CGTAAGGA it was -0.00028; in that of CAGGCCTA, 0.0617; in that of CCTCAGAA, -0.126. Turning to CACTGATA, the “PBM E-score” value was 0.0185. In the case of ACCTACGA it was -0.162; in that of CCAGTCGC, -0.0749; in that of AGTGCCGC, -0.0396. Regarding CGCCCCGA, the “PBM E-score” value was -0.122. AGGTTAAG: the “PBM E-score” value was -0.136. In the case of CCCCAACA it was -0.213. In the case of GCACAAAC it was -0.0491. In the case of CCTGAAGG it was -0.252.
